Test results: US12534531
No constants are given. Whether binding was seen depends on the method and setting. Some binding calls cover weakened binding; strength is not graded here. One block for each binder: values may come before it.

Chains of the proteins cited; added tags and fusions are not shown. Lines headed by an entry give the natural chain unless they say otherwise; changes in a name come on top.
UniProt Q15116: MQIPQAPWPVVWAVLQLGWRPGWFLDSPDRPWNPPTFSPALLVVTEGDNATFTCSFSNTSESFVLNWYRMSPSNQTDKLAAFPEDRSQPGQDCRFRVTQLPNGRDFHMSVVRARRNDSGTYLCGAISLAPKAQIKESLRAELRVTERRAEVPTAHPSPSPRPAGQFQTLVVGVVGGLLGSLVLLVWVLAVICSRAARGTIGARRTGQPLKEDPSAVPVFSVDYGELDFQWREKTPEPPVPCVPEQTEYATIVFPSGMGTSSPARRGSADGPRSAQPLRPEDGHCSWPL

Experiments:
[1] = molecular target: human PD-1 expressed on the surface of cells (NSO cells expressing human PD-1; MNFAT-luc2/PD-1 Jurkat cells) (human) (UniProt Q15116); experiment: FACS saturation binding to NSO cells expressing human PD-1
[2] = molecular target: human PD-1 expressed on the surface of cells (NSO cells expressing human PD-1; MNFAT-luc2/PD-1 Jurkat cells) (human) (UniProt Q15116); experiment: FACS blocking on NSO cells expressing human PD-1, 1:4 dilutions, MFI; blocked ligand: biotinylated sPD-L2, streptavidin-PE
[3] = molecular target: human PD-1 expressed on the surface of cells (NSO cells expressing human PD-1; MNFAT-luc2/PD-1 Jurkat cells) (human) (UniProt Q15116); experiment: FACS saturation binding on NSO cells expressing human PD-1, goat anti-human-APC, MFI, 1:4 dilutions
[4] = molecular target: human PD-1 expressed on the surface of cells (NSO cells expressing human PD-1; MNFAT-luc2/PD-1 Jurkat cells) (human) (UniProt Q15116); experiment: FACS blocking on NSO cells expressing human PD-1, 1:4 dilutions, MFI; blocked ligand: biotinylated sPD-L1, streptavidin-PE

binding [1]: binds
binding [2]: binds
binding [3]: binds
binding [4]: binds
B1: hPD-1 mAb 2 IgG1 (AA) (antibody, V domains shown)
VH: EVQLVESGGGLVQPGGSLRLSCAASGFVFSSFGMHWVRQAPGKGLEWVAYISSGSMSISYADTVKGRFTISRDNAKNTLYLQMNSLRTEDTALYYCASLSDYFDYWGQGTTVTVSS
VL: DVVMTQSPLSLPVTLGQPASISCRSSQSLVHSTGNTYLHWYLQKPGQSPQLLIYRVSNRFSGVPDRFSGSGSGTDFTLKISRVEAEDVGVYYCSQTTHVPWTFGQGTKLEIKR

binding [1]: binds
binding [2]: binds
binding [3]: binds
binding [4]: binds
B2: hPD-1 mAb 15 IgG1 (AA) (antibody, V domains shown)
VH: EVQLVESGGGLVRPGGSLRLSCAASGFTFSSYLISWVRQAPGKGLEWVAAISGGGADTYYADSVKGRFTISRDNAKNSLYLQMNSLRAEDTATYYCARRGTYAMDYWGQGTLVTVSS
VL: DIQMTQSPSSLSASVGDRVTITCLASQTIGTWLAWYQQKPGKAPKLLIYAATSLADGVPSRFSGSGSGTDFTFTISSLQPEDFATYYCQQLYSIPWTFGQGTKLEIKR
